Here are results for 1 substance from paper PMC4057713.

The chains behind the UniProt entries cited, without tags or fusion partners.
UniProt P03126: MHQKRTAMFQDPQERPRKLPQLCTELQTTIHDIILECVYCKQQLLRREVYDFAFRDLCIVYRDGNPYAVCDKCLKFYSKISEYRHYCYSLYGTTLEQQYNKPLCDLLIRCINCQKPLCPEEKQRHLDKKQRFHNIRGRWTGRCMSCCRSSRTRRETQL
UniProt Q16665: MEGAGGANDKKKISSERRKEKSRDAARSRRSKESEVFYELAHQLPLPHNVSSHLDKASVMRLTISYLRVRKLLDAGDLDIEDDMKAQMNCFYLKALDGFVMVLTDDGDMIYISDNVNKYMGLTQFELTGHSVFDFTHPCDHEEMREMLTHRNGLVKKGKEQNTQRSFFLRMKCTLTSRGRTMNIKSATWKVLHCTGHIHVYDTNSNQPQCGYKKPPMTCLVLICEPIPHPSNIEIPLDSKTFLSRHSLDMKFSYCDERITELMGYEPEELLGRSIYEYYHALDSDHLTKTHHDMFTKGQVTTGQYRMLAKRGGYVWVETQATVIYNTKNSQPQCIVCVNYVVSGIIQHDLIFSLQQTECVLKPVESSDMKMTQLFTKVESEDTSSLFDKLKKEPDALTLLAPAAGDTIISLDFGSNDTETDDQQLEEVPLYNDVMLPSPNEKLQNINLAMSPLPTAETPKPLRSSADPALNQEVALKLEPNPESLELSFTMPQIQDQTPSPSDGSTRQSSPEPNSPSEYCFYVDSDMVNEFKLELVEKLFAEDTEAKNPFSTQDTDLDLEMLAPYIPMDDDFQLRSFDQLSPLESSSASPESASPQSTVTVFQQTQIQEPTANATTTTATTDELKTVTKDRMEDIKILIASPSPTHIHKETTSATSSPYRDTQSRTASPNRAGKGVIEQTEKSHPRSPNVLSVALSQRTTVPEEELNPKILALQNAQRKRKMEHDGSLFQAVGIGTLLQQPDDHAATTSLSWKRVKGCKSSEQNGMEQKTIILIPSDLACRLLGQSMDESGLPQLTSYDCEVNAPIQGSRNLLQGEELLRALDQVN

Results are given in words; binding and its absence hold for the method and conditions named. In cells and extracts the contact can be indirect. Some binding calls cover weakened binding; strength is not graded here.

This experiment concerns the target myc-tagged HPV16 E6 (human papillomavirus 16) (UniProt P03126). As to the kind of experiment: co-IP; HEK 293T cells transfected with or without myc-E6, normoxia or 100 uM CoCl2-induced hypoxia, 48 h after transfection; IP with anti-myc (9E10) or anti-HIF-1α, blot with anti-HIF-1α or anti-myc; lysis in radioimmunoprecipitation buffer, 4 °C overnight.

Regarding “Hypoxia-inducible factor 1α (HIF-1α), endogenous (from UniProt Q16665 1-826)”, the binding entry was “binds”.
